Test results reported in paper PMC7819943, “Rice protein-binding microarrays: a tool to detect cis-acting elements near promoter regions in rice”.
The other results are listed elsewhere or left out.

By UniProt entry, the sequences of proteins in these tests, tags left out.
UniProt Q0JBA9, entry or part of it: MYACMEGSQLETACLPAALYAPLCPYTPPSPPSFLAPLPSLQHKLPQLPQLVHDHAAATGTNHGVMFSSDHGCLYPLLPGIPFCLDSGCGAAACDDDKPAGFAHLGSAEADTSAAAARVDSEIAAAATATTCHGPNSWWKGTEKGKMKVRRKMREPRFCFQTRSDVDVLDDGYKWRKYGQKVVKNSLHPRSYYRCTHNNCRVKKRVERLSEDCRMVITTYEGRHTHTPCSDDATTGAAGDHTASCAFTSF

Each sequence was assayed against OsWRKY34 (Oryza sativa, UniProt Q0JBA9 1-250) (assay: protein-binding microarray (RPBM); PBS, 2% BSA, 51.3 ng/ul salmon testes DNA, 50 uM zinc acetate, 200 nM TF, 25 C, 1 h; high values mean tight binding). Settings: protein: recombinant; tags: N-terminal polyhistidine and DsRed monomer fusion (pET32a); label: CyDye5-dUTP incorporated in the synthesized complementary strand; 3' TTTTT single-stranded linker to array surface; dsDNA, one strand shown.
In short: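 Ni–NTA purification followed expression in E. coli BL21-CodonPlus of transcription factors fused N-terminally to a polyhistidine tag and DsRed. At 200 nM in PBS with 2% BSA, salmon testes DNA and 50 µM zinc acetate, the protein was incubated for 1 h at 25 °C with a custom Agilent array that had been primer-extended with Cy5-dUTP and blocked with 2% BSA. After washing, the array was read on an Axon 4000B scanner. The binding signal is per-feature fluorescence intensity in arbitrary units.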

Sequence	binding signal
TCCTTGCTTATCAACACGTACGTTGCGTTTCTTGGCAATGCGGAGTCACCTAGTGCAG	8020 fluorescence intensity (a.u.)
GAGCGCTCTTCCCGCCAAATTTGGCTCGGCCGCGCGCGCCCGGAGTCACCTAGTGCAG	8340 fluorescence intensity (a.u.)
ATTCAATTTCCCCACCTACCTTCGCATCTCAACCAATCACCGGAGTCACCTAGTGCAG	9740 fluorescence intensity (a.u.)
GGAGACTTGTACCAGTACTTTTACCTAACCTCACAATACCCGGAGTCACCTAGTGCAG	9030 fluorescence intensity (a.u.)
ACCCACTAATCCAGCCAAGTAATGCCGATTTTTACCCCACCGGAGTCACCTAGTGCAG	8310 fluorescence intensity (a.u.)
TCGCCAGTTCCTAACGCATCGTCTTGCCAGGCCTCAATATCGGAGTCACCTAGTGCAG	8490 fluorescence intensity (a.u.)
TTTTTTTTTGTTATTGTGTTGCGTTTCCTCCTAGTAAACACGGAGTCACCTAGTGCAG	10100 fluorescence intensity (a.u.)
GCCCTTTCTGCAGATCCGAACATAACTACTGCTATCCTTACGGAGTCACCTAGTGCAG	8680 fluorescence intensity (a.u.)
CCCCATCCGTCCCACTGACATCCCGGCCCCACCATACCGTCGGAGTCACCTAGTGCAG	8320 fluorescence intensity (a.u.)
TGCATTACTGCGAAGGTCATTTTTGTTTTGGATCATAGCACGGAGTCACCTAGTGCAG	9630 fluorescence intensity (a.u.)
ACTTTTCTTCTGTAACTCCACAGCTACTTTACTCAACATCCGGAGTCACCTAGTGCAG	8900 fluorescence intensity (a.u.)
GTCCCACCTTAATCATGGCCCACTGGTAAGTCTCTTAACGCGGAGTCACCTAGTGCAG	8350 fluorescence intensity (a.u.)
TTGTAACTCTTTTTCTTGTTGAATATAATGTTGTTTGTTTCGGAGTCACCTAGTGCAG	9490 fluorescence intensity (a.u.)
ATCTCTCCTCTCTATCTCTTTCTCATCTCCACCTCACCTCCGGAGTCACCTAGTGCAG	10100 fluorescence intensity (a.u.)
TAGGTGTGTATGTTTGTGTTCATAGGCCTCGCTTATGGTGCGGAGTCACCTAGTGCAG	8760 fluorescence intensity (a.u.)
GACAATTCAAATCTCCTAGCGCTCTACTACTTCTAGCACACGGAGTCACCTAGTGCAG	8900 fluorescence intensity (a.u.)
ACTAGAATCTCACACATGACACATCCATCACATCACACACCGGAGTCACCTAGTGCAG	9730 fluorescence intensity (a.u.)
CACACGCATTACTTAGGCCATGCTTCTTTCAGCTTAATATCGGAGTCACCTAGTGCAG	10500 fluorescence intensity (a.u.)
GGTAAGCATCATACTGTTCGTTGTTGACTCAATGATCATCCGGAGTCACCTAGTGCAG	9470 fluorescence intensity (a.u.)
GCATAACTGTGGTCTCCAACTTGCGACATGCAACTTTGAGCGGAGTCACCTAGTGCAG	8090 fluorescence intensity (a.u.)
AGTCGGGGCTGCTTGTTGATGTGTTTATATACCGCGCGGCCGGAGTCACCTAGTGCAG	10300 fluorescence intensity (a.u.)
GTGCAACAGTTTAATTTTTGGCGTTTTTTTTATCTTTCTGCGGAGTCACCTAGTGCAG	9320 fluorescence intensity (a.u.)
TAGAGAAGAGACGAGAGGTTGGGGTGGGCGGCCGCGGGAGCGGAGTCACCTAGTGCAG	9270 fluorescence intensity (a.u.)
AACATTCTTTGCAACAAATCAGCCACATATTATAGAAACCCGGAGTCACCTAGTGCAG	8100 fluorescence intensity (a.u.)
ATGCTAATATTGTTTTCCTTTTCAGGAGTGTTCTCATACTCGGAGTCACCTAGTGCAG	8270 fluorescence intensity (a.u.)
GGTCCACAGAGAAAATGGAATGGTGCGGGGTGGTGTTCTGCGGAGTCACCTAGTGCAG	8160 fluorescence intensity (a.u.)
TATTTGTTTTTTTCCCACATTTCCACCCAACCCATCCATCCGGAGTCACCTAGTGCAG	9870 fluorescence intensity (a.u.)

Not a retest: an excerpt of the list.
Sequence	binding signal
GCCCTTTCTGCAGATCCGAACATAACTACTGCTATCCTTACGGAGTCACCTAGTGCAG	8680 fluorescence intensity (a.u.)
CCCCATCCGTCCCACTGACATCCCGGCCCCACCATACCGTCGGAGTCACCTAGTGCAG	8320 fluorescence intensity (a.u.)
TGCATTACTGCGAAGGTCATTTTTGTTTTGGATCATAGCACGGAGTCACCTAGTGCAG	9630 fluorescence intensity (a.u.)
ACTTTTCTTCTGTAACTCCACAGCTACTTTACTCAACATCCGGAGTCACCTAGTGCAG	8900 fluorescence intensity (a.u.)
GTCCCACCTTAATCATGGCCCACTGGTAAGTCTCTTAACGCGGAGTCACCTAGTGCAG	8350 fluorescence intensity (a.u.)
TTGTAACTCTTTTTCTTGTTGAATATAATGTTGTTTGTTTCGGAGTCACCTAGTGCAG	9490 fluorescence intensity (a.u.)
ATCTCTCCTCTCTATCTCTTTCTCATCTCCACCTCACCTCCGGAGTCACCTAGTGCAG	10100 fluorescence intensity (a.u.)
TAGGTGTGTATGTTTGTGTTCATAGGCCTCGCTTATGGTGCGGAGTCACCTAGTGCAG	8760 fluorescence intensity (a.u.)
GACAATTCAAATCTCCTAGCGCTCTACTACTTCTAGCACACGGAGTCACCTAGTGCAG	8900 fluorescence intensity (a.u.)
ACTAGAATCTCACACATGACACATCCATCACATCACACACCGGAGTCACCTAGTGCAG	9730 fluorescence intensity (a.u.)
CACACGCATTACTTAGGCCATGCTTCTTTCAGCTTAATATCGGAGTCACCTAGTGCAG	10500 fluorescence intensity (a.u.)
GGTAAGCATCATACTGTTCGTTGTTGACTCAATGATCATCCGGAGTCACCTAGTGCAG	9470 fluorescence intensity (a.u.)
GCATAACTGTGGTCTCCAACTTGCGACATGCAACTTTGAGCGGAGTCACCTAGTGCAG	8090 fluorescence intensity (a.u.)
AGTCGGGGCTGCTTGTTGATGTGTTTATATACCGCGCGGCCGGAGTCACCTAGTGCAG	10300 fluorescence intensity (a.u.)

More entries follow:

Sequence	binding signal
GTCGGAGTGGTTTGCCGTAGTTGTCTCTCGTTTTCGCTGTCGGAGTCACCTAGTGCAG	8680 fluorescence intensity (a.u.)
TCCGTTCGCTATTTGGGTTGGTTGGGCTATAGAAAAGCCCCGGAGTCACCTAGTGCAG	8520 fluorescence intensity (a.u.)
TGTATCTTCAGATTCTCTACTGGTCTTCTAAGTTTCATTCCGGAGTCACCTAGTGCAG	8260 fluorescence intensity (a.u.)
CAGCACCGTCATCGTCGTCGTTGTCGCGCGTCACCGTGAACGGAGTCACCTAGTGCAG	9390 fluorescence intensity (a.u.)
TCTCTCTCTCTCGACAAATCTCGTTCCCGGCTTCGTTTCCCGGAGTCACCTAGTGCAG	10100 fluorescence intensity (a.u.)
CATCCACTGCAGTAACGGGAACGCGGACCTCGCCATCGTTCGGAGTCACCTAGTGCAG	8640 fluorescence intensity (a.u.)
CCATCCGTGCGCCGTCCTTTTGCCGCCCGCGCGGGCCCCACGGAGTCACCTAGTGCAG	11000 fluorescence intensity (a.u.)
TTTTTTTTCTGTTAGTACTGTTTTTGGTCCAAACATCTTTCGGAGTCACCTAGTGCAG	8180 fluorescence intensity (a.u.)
ACTCTTTGGGCGTCTCCAGCTTCTAGTTACTTCGTCTCCTCGGAGTCACCTAGTGCAG	9370 fluorescence intensity (a.u.)
TCTGGAGTTTGTGTTCTGTTGCTGCCGATGCCTTTCCTCACGGAGTCACCTAGTGCAG	12700 fluorescence intensity (a.u.)
AACAGTTTAACTTTGACCAAAGTCAAAACATCTTATAACCCGGAGTCACCTAGTGCAG	9750 fluorescence intensity (a.u.)
CTCTCCTCTTTCTTTTTTCCCTCTAGTGATAGGGCCATACCGGAGTCACCTAGTGCAG	8320 fluorescence intensity (a.u.)
CTCGGGTGGGTTGCGGTTGAGCCACTTGGTGTGCCATCAACGGAGTCACCTAGTGCAG	10600 fluorescence intensity (a.u.)
TTTCTACTCACTCCGTTTTTCTCAATGTAAATTATTCTAGCGGAGTCACCTAGTGCAG	10300 fluorescence intensity (a.u.)
GGTACGTGTTCAATATGTTGCGCATATTTGATCTTTTCATCGGAGTCACCTAGTGCAG	9920 fluorescence intensity (a.u.)
ACCCCGCCTCCGCCGCATTCAATCCATCGCCGCAACGACACGGAGTCACCTAGTGCAG	10100 fluorescence intensity (a.u.)
CTTCACATGAGTATTTCTTGACCATGTATCAACATTTGTACGGAGTCACCTAGTGCAG	9620 fluorescence intensity (a.u.)
AATTCGTTTAATATTTCGGACTTCATATTTCTGTTACTGCCGGAGTCACCTAGTGCAG	8500 fluorescence intensity (a.u.)
CAGACATCAAATCATCTGTTTGTTATCCCTGGTGCTGTTTCGGAGTCACCTAGTGCAG	8650 fluorescence intensity (a.u.)
GAACCCTTGAATTGCCCTGTTTTCCCATTGCTATGCTTTTCGGAGTCACCTAGTGCAG	10200 fluorescence intensity (a.u.)
GTGTGAAATTGACATGTGGGTCCCATGGGTATTATTATTACGGAGTCACCTAGTGCAG	9290 fluorescence intensity (a.u.)
TTATCTTAACGTGGCCCAACTCCTGCTCTTCTTCCTTTTCCGGAGTCACCTAGTGCAG	8040 fluorescence intensity (a.u.)
ATCCCAAAATAATGTGTTCGGGTGGGCGGGCGGGAAATATCGGAGTCACCTAGTGCAG	23000 fluorescence intensity (a.u.)
GTCTATTCAAATCAACCTTGGCCGCCGTCCTATCCACGGCCGGAGTCACCTAGTGCAG	8080 fluorescence intensity (a.u.)
ATTGGGCTGGAATGAGATTCACGGGAGGGTAACTGGCGGTCGGAGTCACCTAGTGCAG	12300 fluorescence intensity (a.u.)
CGTGCTCAACTTTGATCATTCATCTTATTTAAATTTTTTTCGGAGTCACCTAGTGCAG	10300 fluorescence intensity (a.u.)
AACTCTCTCTCTCCAGCTCCACCTTCTCCGAGGCCGCCATCGGAGTCACCTAGTGCAG	9790 fluorescence intensity (a.u.)
